Laboratory results from paper PMC10163288.
Some of the results follow.

B1: il2ra_site1_3nfp_normal_mot_HHH_b1_00630_af2_000000193_0001_42_55_H_._HHH_b1_07411_af2_0001_0000200016_0000001_0 (protein)
chain: SSSSTSEERQEFEEALEEARQLLKEGNPEEARKLLEEILRELEELGDKVAARLVEEILRLISSSS
B2: il2ra_site2_2erj_sap_31_mot_HHH_b2_02949_000000055_0001_1_19_H_._HHH_b1_00412_af2_0001_0000800026_0000001_0_0001_af2pred_0001_af2pred_1_swapped (protein)
chain: SSSDREEVAEEVVRRLEEELGLDEEAQKLLELAAETAIEAGASPEEIELFLELFARLLLEESSSS
B3: il2ra_site2_2erj_sap_27_mot_d513a5c7d2e7ced7c66e00d3c8df735a_0001_000000137_0001_35_49_H_._HHH_b2_01770_0001_0000300008_0000001_0_0001 (protein)
chain: SSSSDQVVRAAEEFAEEAFERGDEDYLRLLLEFARRTAETVNDPELEELVEEIEELLERLRSSSS
B4: il2ra_site1_2b5i_normal_mot_HHH_b1_05188_af2_000000065_0001_43_56_H_._HHH_b2_06122_af2_0001_0000500034_0000001_1_af2pred_0001_af2pred (protein)
chain: SSSSSKQEEVLEIFHEASRLFREGNKEEARRLLEELLKELEERNDEKLRKQVEHFLEAIEKSSSS
B5: il2ra_site2_2erj_sap_10_mot_HHH_b1_07584_000000201_0001_42_55_H_._HHH_b1_02641_af2_0001_0000100003_0000001_0_0001 (protein)
chain: SSSSNEKLKELYELAVRIMHALTRGDPEEVEELLKELKELIEELNSDNAREILKWLEKLLNSSSS
B6: il2ra_site1_3nfp_sap_20_mot_HHH_b2_00213_000000088_0001_1_18_H_._HEEHE_0331_af2_0001_0000400039_0000001_0_0001_af2pred_dldesign_0_af2pred (protein)
chain: SSSSSLRKELERLLKKAYETGKKNDKEKLKKLLEEALKLAKENKAKLSVKFLERALKQLKSSSSS
B7: il2ra_site1_1z92_normal_mot_HHH_b2_07193_000000005_0001_24_40_H_._66959ead3e6c57cb3ef8243f3eb758e0_0001_1_af2_0001_0000200023_0000001_0_af2pred_0001_af2pred (protein)
chain: SDTKEALREAVEKNDEELLREFIELLLEISGDPKLVERFLKVLVRKLGLPPEVLEELRELLEELT
B8: il2ra_site2_3nfp_normal_mot_HHH_b1_01086_af2_000000264_0001_39_53_H_._HHH_b1_01143_0001_0001200099_0000001_0_af2pred_0001_af2pred (protein)
chain: SSSSDEEEQRVEELLKRIEELKKEGDEEEVRRLLEEILRIARESNNPHLLWILLELRERLESSSS
B9: il2ra_site1_3nfp_sap_16_mot_HHH_b2_02744_000000262_0001_1_20_H_._HHH_b2_06351_0001_0000200035_0000001_0_0001 (protein)
chain: SSSSSAEEAFKLSREIMKLLKEGNEEEAKKLIEELKEWAEEANDPIAERLARQLEEALRRSSSSS
B10: il2ra_site1_2b5i_sap_17_mot_HHH_b1_05608_000000027_0001_1_14_H_._HHH_b1_05678_af2_0001_0000300018_0000001_1_0001 (protein)
chain: SSSSSELAQRARELLHEAQELMKQGNEEEARRVLEEAYEIAEEGNSPVILLFVRRALEDLSSSSS
B11: il2ra_site2_3nfp_normal_mot_HHH_b2_07083_af2_000000083_0001_42_56_H_._HHH_b1_04834_0001_0000100004_0000001_0_af2pred_0001_af2pred (protein)
chain: SSSSDIEERVRELLEQLEEALREGDEELFERLAKEVSQLAYEANDPELFSEVAQLLLEFGSSSSS
B12: il2ra_site1_3nfp_normal_mot_b9b1aa0f98829a21a591038753170461_0001_1_af2_000000119_0001_3_14_H_._HHH_b2_06853_0001_0000500050_0000001_1_af2pred_0001_af2pred_swap … (protein)
chain: SSSSSSREAEELVRRIQEALKNDDKEQAEELLEELKEIAEERNSRIAKELIERLERKVKSSSSSS
B13: il2ra_site1_2b5i_sap_24_mot_add8a691351788dd45ba4deda1838316_0001_1_000000263_0001_37_51_H_._7e65b9b3744af75e5722afc9efacd91e_0001_0001_0000300025_0000001_0_000 … (protein)
chain: SSSSSDPEKALELFLKADELYKAGKEEEAKKLLEEALKLAKAGGSNLLVKFIESALKQLGSSSSS
B14: il2ra_site1_3nfp_sap_15_mot_HHH_b2_05538_af2_000000197_0001_20_36_H_._HHH_b2_05054_0001_0000100001_0000001_0_0001_af2pred_0001_af2pred_swapped (protein)
chain: SSSSSELIREAIELLEEALELAFNGNPEEAKEVLEEARRLAEELGNESLLRRIEFDLRALESSSS
B15: il2ra_site2_2erj_normal_mot_HHH_b1_01239_000000175_0001_43_57_H_._HHH_b2_03035_0001_0000100009_0000001_0_af2pred_0001_af2pred (protein)
chain: SSSSSDKEETREEVEELLEEAKRIPDLEEAIKLLQEAAELADKYNDPELQELVERVLRRLSSSSS
B16: il2ra_site2_3nfp_normal_mot_HHH_b1_00660_af2_000000090_0001_40_57_H_._HHH_b1_07903_0001_0000200012_0000001_0_af2pred_0001_af2pred (protein)
chain: SSSSDEEEREIEQLIREAKELLEEGNPEEAKEALHKAAALAAEARDHELFMKILLLLEKIESSSS
B17: il2ra_site1_1z92_normal_mot_934a834d9b8b770824478def2ff2f329_0001_af2_000000088_0001_15_30_H_._HHH_b2_05340_af2_0001_0000200014_0000001_0_af2pred_0001_af2pred_1 (protein)
chain: SSSSSDEEAEEIVEELVKEFGLSEALERQLRRLAEDAQRQGLDEEDIEKELRSFAEFASSSSSSS
B18: il2ra_site2_2erj_sap_17_mot_HHH_b2_00484_af2_000000139_0001_42_55_H_._HHH_b1_00676_0001_0000600026_0000001_0_0001 (protein)
chain: SSSSDWLHRIYELANEITRLISEGDPEKAEELLEELEELAKERDSPAAEKLVETLQKLIEQSSSS

Each binder was assayed against il2ra, P01589 (assay: yeast display titration).

Apparent Kd, inactive:
B1 no binding seen
B2 no binding seen
B3 no binding seen
B4 no binding seen
B5 no binding seen
B6 > 1470 nM
B7 no binding seen
B8 no binding seen
B9 no binding seen
B10 no binding seen
B11 no binding seen
B12 no binding seen
B13 no binding seen
B14 no binding seen
B15 no binding seen
B16 no binding seen
B17 no binding seen
B18 no binding seen
